From publication doi:10.1101/2020.06.25.171694
No constants are given. Whether binding was seen depends on the method and setting. In cells and extracts the contact can be indirect. Some results given as binding are weak or reduced against the parent protein; the word gives no strength. Sequences can lack the tags named with a protein.

Assays:
[1] = target: T1, Heh1-S^GFP 1-638aa (S. cerevisiae) (UniProt Q03707); test: co-IP
T1 sequence: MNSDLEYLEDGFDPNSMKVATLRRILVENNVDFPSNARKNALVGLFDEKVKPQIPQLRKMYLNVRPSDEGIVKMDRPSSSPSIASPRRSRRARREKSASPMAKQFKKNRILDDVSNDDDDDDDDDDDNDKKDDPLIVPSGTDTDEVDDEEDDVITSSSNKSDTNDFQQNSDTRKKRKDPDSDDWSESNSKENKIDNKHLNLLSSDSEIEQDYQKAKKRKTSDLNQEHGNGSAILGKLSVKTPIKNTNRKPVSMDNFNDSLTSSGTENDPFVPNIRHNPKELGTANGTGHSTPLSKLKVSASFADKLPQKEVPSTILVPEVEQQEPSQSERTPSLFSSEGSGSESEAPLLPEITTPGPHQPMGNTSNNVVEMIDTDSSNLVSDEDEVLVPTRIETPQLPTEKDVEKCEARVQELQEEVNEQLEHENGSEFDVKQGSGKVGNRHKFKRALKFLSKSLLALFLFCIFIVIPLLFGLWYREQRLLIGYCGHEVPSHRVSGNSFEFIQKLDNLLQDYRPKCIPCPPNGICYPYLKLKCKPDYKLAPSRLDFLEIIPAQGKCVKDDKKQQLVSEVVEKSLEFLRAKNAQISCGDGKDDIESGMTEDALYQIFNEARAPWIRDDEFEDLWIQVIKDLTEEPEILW

[2] = target: T2, Heh1-L^GFP (S. cerevisiae), Q03707; test: co-IP; settings: remark: other sources report otherwise
T2 chain: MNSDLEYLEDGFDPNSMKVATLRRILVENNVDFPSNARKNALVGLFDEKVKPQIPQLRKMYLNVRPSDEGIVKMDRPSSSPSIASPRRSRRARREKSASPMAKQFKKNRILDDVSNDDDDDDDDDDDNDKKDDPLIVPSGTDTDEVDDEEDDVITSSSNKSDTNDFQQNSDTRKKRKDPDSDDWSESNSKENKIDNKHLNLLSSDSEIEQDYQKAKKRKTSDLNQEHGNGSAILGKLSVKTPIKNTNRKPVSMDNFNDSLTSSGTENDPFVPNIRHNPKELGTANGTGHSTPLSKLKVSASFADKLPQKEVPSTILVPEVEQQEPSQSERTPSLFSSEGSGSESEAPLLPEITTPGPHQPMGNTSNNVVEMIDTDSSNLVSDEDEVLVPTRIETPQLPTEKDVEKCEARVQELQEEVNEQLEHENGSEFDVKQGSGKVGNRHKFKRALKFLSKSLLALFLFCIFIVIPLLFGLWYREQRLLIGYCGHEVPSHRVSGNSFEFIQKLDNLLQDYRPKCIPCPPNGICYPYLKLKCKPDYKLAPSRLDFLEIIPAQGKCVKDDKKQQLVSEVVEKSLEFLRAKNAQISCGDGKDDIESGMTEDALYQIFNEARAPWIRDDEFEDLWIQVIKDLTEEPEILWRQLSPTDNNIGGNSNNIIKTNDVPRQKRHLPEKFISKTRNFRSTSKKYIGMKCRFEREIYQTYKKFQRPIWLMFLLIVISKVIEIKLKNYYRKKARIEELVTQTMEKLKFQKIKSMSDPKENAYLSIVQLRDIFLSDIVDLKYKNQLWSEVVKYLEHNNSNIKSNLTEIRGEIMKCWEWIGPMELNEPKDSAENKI

Binder	binding [1]	binding [2]
Heh1-L^6HA (protein, UniProt Q03707 1-834) MNSDLEYLEDGFDPNSMKVATLRRILVENNVDFPSNARKNALVGLFDEKVKPQIPQLRKMYLNVRPSDEGIVKMDRPSSSPSIASPRRSRRARREKSASPMAKQFKKNRILDDVSNDDDDDDDDDDDNDKKDDPLIVPSGTDTDEVDDEEDDVITSSSNKSDTNDFQQNSDTRKKRKDPDSDDWSESNSKENKIDNKHLNLLSSDSEIEQDYQKAKKRKTSDLNQEHGNGSAILGKLSVKTPIKNTNRKPVSMDNFNDSLTSSGTENDPFVPNIRHNPKELGTANGTGHSTPLSKLKVSASFADKLPQKEVPSTILVPEVEQQEPSQSERTPSLFSSEGSGSESEAPLLPEITTPGPHQPMGNTSNNVVEMIDTDSSNLVSDEDEVLVPTRIETPQLPTEKDVEKCEARVQELQEEVNEQLEHENGSEFDVKQGSGKVGNRHKFKRALKFLSKSLLALFLFCIFIVIPLLFGLWYREQRLLIGYCGHEVPSHRVSGNSFEFIQKLDNLLQDYRPKCIPCPPNGICYPYLKLKCKPDYKLAPSRLDFLEIIPAQGKCVKDDKKQQLVSEVVEKSLEFLRAKNAQISCGDGKDDIESGMTEDALYQIFNEARAPWIRDDEFEDLWIQVIKDLTEEPEILWRQLSPTDNNIGGNSNNIIKTNDVPRQKRHLPEKFISKTRNFRSTSKKYIGMKCRFEREIYQTYKKFQRPIWLMFLLIVISKVIEIKLKNYYRKKARIEELVTQTMEKLKFQKIKSMSDPKENAYLSIVQLRDIFLSDIVDLKYKNQLWSEVVKYLEHNNSNIKSNLTEIRGEIMKCWEWIGPMELNEPKDSAENKI	binds	
Heh1-L^6HA, Q03707 1-834 (protein) MNSDLEYLEDGFDPNSMKVATLRRILVENNVDFPSNARKNALVGLFDEKVKPQIPQLRKMYLNVRPSDEGIVKMDRPSSSPSIASPRRSRRARREKSASPMAKQFKKNRILDDVSNDDDDDDDDDDDNDKKDDPLIVPSGTDTDEVDDEEDDVITSSSNKSDTNDFQQNSDTRKKRKDPDSDDWSESNSKENKIDNKHLNLLSSDSEIEQDYQKAKKRKTSDLNQEHGNGSAILGKLSVKTPIKNTNRKPVSMDNFNDSLTSSGTENDPFVPNIRHNPKELGTANGTGHSTPLSKLKVSASFADKLPQKEVPSTILVPEVEQQEPSQSERTPSLFSSEGSGSESEAPLLPEITTPGPHQPMGNTSNNVVEMIDTDSSNLVSDEDEVLVPTRIETPQLPTEKDVEKCEARVQELQEEVNEQLEHENGSEFDVKQGSGKVGNRHKFKRALKFLSKSLLALFLFCIFIVIPLLFGLWYREQRLLIGYCGHEVPSHRVSGNSFEFIQKLDNLLQDYRPKCIPCPPNGICYPYLKLKCKPDYKLAPSRLDFLEIIPAQGKCVKDDKKQQLVSEVVEKSLEFLRAKNAQISCGDGKDDIESGMTEDALYQIFNEARAPWIRDDEFEDLWIQVIKDLTEEPEILWRQLSPTDNNIGGNSNNIIKTNDVPRQKRHLPEKFISKTRNFRSTSKKYIGMKCRFEREIYQTYKKFQRPIWLMFLLIVISKVIEIKLKNYYRKKARIEELVTQTMEKLKFQKIKSMSDPKENAYLSIVQLRDIFLSDIVDLKYKNQLWSEVVKYLEHNNSNIKSNLTEIRGEIMKCWEWIGPMELNEPKDSAENKI		binds
